# Library screen at single concentrations

Data taken from ChEMBL document CHEMBL3988442, “University of Dundee, Small-Polar-MMV Screening Library” (2021).

Each number is a percent effect as filed.
How 0% and 100% were set is not recorded. Most values in the screen are low, and negative values occur.
This is an unselected part of the compounds tested.

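Whole-parasite assay of Trypanosoma brucei over 72 hours; the read-out is not stated. Tested at 30 µM. Higher reads as stronger inhibition (inferred: compounds with an IC50 in retests scored well above the rest). Values scatter widely below zero; nearly all retest evidence comes from the higher of the two concentrations used. About 64,000 compounds were tested under these conditions; 1.5% (about 940) showed 50% or more at least once.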

SMILES	percent effect
Cc1nc(Cn2nc(C3CCNCC3)n(Cc3ccccc3)c2=O)no1	-23.02
O=C(NCCc1csc(-c2ccncc2)n1)C1CC(=O)N(C2CC2)C1 (stereo not drawn)	3.444
CN1CC(c2ccccc2)CC2(CCN(CC(=O)N(C)C)CC2)C1 (stereo not drawn)	27.88
COc1ccccc1C(=O)N1CC(=O)N(Cc2ccco2)CC(O)C1 (stereo not drawn)	0.7431
Cc1ccccc1CN(C)C(=O)c1ccoc1	-17.39
Cc1cncc(C2CCCN(Cc3ccncc3)C2)n1 (stereo not drawn)	-40.99
O=C(CCCOCc1ccccc1)N1CCCC1c1ccccn1 (stereo not drawn)	-31.71
O=C(NCCN1CCOCC1)C(OC1CCCC1)c1ccccc1 (stereo not drawn)	-9.248
O=C(C1CC1)N1CC[C@H](O)[C@@H]1Cc1ccccc1	-5.545
Cc1nc(C2CCN(Cc3ncc[nH]3)CC2)no1.O=CO	-30.69
CCOc1ccccc1C(=O)N1CCn2c(nnc2C(F)(F)F)C1	-2.581
[H][C@@]12COC[C@@H](CC(=O)NCCOC)[C@]1([H])CN(C(=O)C1CCOCC1)C2	-33.77
NC(=O)c1ccc(OCC(=O)NS(=O)(=O)c2ccc3c(c2)CCC3)cc1	-5.582
CC1CCN(c2ccnc3ccc(Br)cc23)CC1	-87.88
CN(CCN1CCOCC1)C(=O)CCCc1ccccc1	12.46
CCn1cc(C(=O)NCC(C)(CC)N2CCOCC2)c2ccccc21 (stereo not drawn)	-30.95
CCOc1c(Cl)cc(/C=C/c2ncc(C(=O)O)s2)cc1OC	1.129
Cc1nc(CCN)cc(N2CCOc3ccc(Cl)cc3C2)n1	2.75
O=C(O)C(F)(F)F.O=C(O)C(F)(F)F.[H][C@@]12CC(COCc3cccnc3)C[C@@]1([H])N(c1ncc(C)cn1)CCO2 (stereo partly drawn)	-14.97
CCn1ccnc1CN1CCN(CC(=O)NC(=O)NC2CC2)CC1	-3.332
O=C(O)CC(CC(=O)NCCc1cccs1)c1cccs1 (stereo not drawn)	8.106
CC(NC(=O)c1cc(C(C)C)[nH]n1)C(=O)Nc1ccccc1 (stereo not drawn)	-43.78
CCc1cnc(CCNS(C)(=O)=O)s1	-49.15
Cn1cnc(S(=O)(=O)NCCCN2CCCC2=O)c1Cl	-22.79
CCc1cc(C(=O)N2Cc3ccccc3OC3(CCOCC3)C2)on1	-27.22
CC1(c2ncc(CN3CCOCC3)cn2)CCCCO1 (stereo not drawn)	-20.61
CN(C)C1(C(=O)NC2CCC(Oc3ccccc3C#N)CC2)CCC1 (stereo not drawn)	-17.82
CCOc1cc(C(=O)N2CCN(C)CC2)cc2occc12	-44.4
COCCN(C)C[C@H]1C[C@H](CO)CN(C(=O)c2ccc(=O)n(C)c2)C1	-20.75
CCc1nc(CNC(C)c2cccc(N3CCCC3=O)c2)cs1.Cl (stereo not drawn)	-24.11
O=C1CC(c2ccsc2)c2c(n(C3CCOCC3)[nH]c2=O)N1 (stereo not drawn)	6.385
CS(=O)(=O)c1snnc1C1CCN(Cc2cccnc2)CC1	-3.291
Cc1ccc(N(C)C2CCN(C(=O)c3n[nH]c4c3CCC4)CC2)nn1	-3.311
Cc1ccc(CN(C)C(=O)NCC(C)(C)NS(C)(=O)=O)s1	6.878
[H][C@@]12CCN(Cc3nc(C)cs3)C[C@@]1([H])O[C@H](c1noc(C)n1)C2	-7.559
Cc1nc(C(=O)N2CCc3c(nc(-c4ccncc4)[nH]c3=O)C2)cs1	-16.91
Cc1ccc2c(c1)C1(CCNCC1)CC2NC(C)C.Cl.Cl (stereo not drawn)	-45.88
O=C(Cn1ccc2ncccc2c1=O)N1CCCCC1	-20.97
[H][C@]12C[C@H](C(=O)NCC3CC3)N(C)[C@@]1([H])CN(c1ncccn1)C2	-0.4286
Cc1ccoc1CNCc1nnc2n1CCCC2C(F)(F)F (stereo not drawn)	-25.53
Cc1ccc(C(CNC(=O)NCc2cc[nH]n2)N2CCOCC2)o1 (stereo not drawn)	-19.29
Cn1cc(CN2CC[C@@H](O)[C@@H]2Cc2ccccc2)cn1	-113
COc1ccc(CC(C)(O)CNC(=O)Cc2ccc(F)cc2)cc1 (stereo not drawn)	-22.42
O=C(O)C(F)(F)F.O=C(c1cccs1)N1CCCC2(COCCN(c3cccnc3)C2)C1 (stereo not drawn)	-669.5
[H][C@@]12CCN(C)[C@]1([H])CN(C(=O)c1csc(Cc3ccccc3)n1)C2	-39.14
COc1ccc(NC(=O)N2CCN(c3ncccn3)CC2)cn1	-59.19
COc1ccc(-c2ccoc2)cc1CNC1CCCC1	2.4
CC(C)Cn1ncc2cc(C(=O)N(C)CCc3ccccc3)cnc21	0.002164
COc1ccc(NC(=O)C(c2ccc(OC)cc2)N2CCOCC2)cc1 (stereo not drawn)	-17.96
Cc1nn(Cn2ccc(C(=O)N3CCCCCC3)n2)c(C)c1Cl	-26.11
O=C(Cn1c(C(F)F)cc2cccnc21)NC1CCCC1	-1.69
COCCC(=O)N1C[C@H](C(C)C)[C@@H](N(C)C)C1	1.616
CC(C)(C)CN1CC[C@H](c2nnc(Cc3c[nH]c4ccccc34)o2)C1	-40.28
CC(=O)N1CCN(CCNS(=O)(=O)c2cc(F)ccc2C)CC1	-6.959
COC(C)c1noc(CN2CCCNCC2)n1 (stereo not drawn)	1.992
CN1CCN(C[C@@H]2CN(Cc3c(Cl)cncc3Cl)C[C@@H]2CO)CC1	-148.5
O=C(O)CC[C@@H]1CN(c2ncnc3[nH]ccc23)CC[C@@H]1N1CCOCC1	-1.02
CNC(=O)[C@@H](c1ccccc1OC)N1CCC[C@H]1C(=O)NCCN(C)C.Cl.Cl	3.371
COCCNC(=O)c1nc(NS(=O)(=O)c2ccccc2)sc1C	-17.28
CCS(=O)(=O)c1ccc(N2CCC(NC(=O)C(C)SC)CC2)cc1 (stereo not drawn)	12.1
COC(=O)CNC(=O)N1CCC2(CC1)CC(c1ccccc1)CN(C)C2 (stereo not drawn)	-37.1
COc1ccc(CNc2c(C)nn(C(C)C)c2C)cc1OC.Cl	-7.716
CCOC1COC2(CCN(c3cccc(C)n3)CC2)C1.O=C(O)C(F)(F)F (stereo not drawn)	-43.16
COc1ccc(CN(C)c2nccc(-c3cn(C)nc3C)n2)cc1	2.965
CNC(=O)Nc1cnc2cc(Cl)ccc2c1O	-19.16
CN(C)c1ncccc1CNCc1cccc(O)c1	-0.924
Cc1cc(CNC(=O)CCN2CCN(c3ccccn3)CC2)c(C)o1	-8.673
CN(CC(C)(CO)CO)C(=O)Nc1cc(F)cc(F)c1	-14.71